Test results reported in PMC11671593.
These are yes or no findings as the source states them, for the method shown. For some of these results: In cells and extracts the contact can be indirect. Some entries that bind do so weakly or less than the wild type. For some of these results: Tags and fused reporters may be left off the sequences shown. Values belong to the molecule of their own block, whether it stands above or below them.

Sequences of proteins named here, by UniProt entry; tags and fusion partners are left off.
UniProt Q06330: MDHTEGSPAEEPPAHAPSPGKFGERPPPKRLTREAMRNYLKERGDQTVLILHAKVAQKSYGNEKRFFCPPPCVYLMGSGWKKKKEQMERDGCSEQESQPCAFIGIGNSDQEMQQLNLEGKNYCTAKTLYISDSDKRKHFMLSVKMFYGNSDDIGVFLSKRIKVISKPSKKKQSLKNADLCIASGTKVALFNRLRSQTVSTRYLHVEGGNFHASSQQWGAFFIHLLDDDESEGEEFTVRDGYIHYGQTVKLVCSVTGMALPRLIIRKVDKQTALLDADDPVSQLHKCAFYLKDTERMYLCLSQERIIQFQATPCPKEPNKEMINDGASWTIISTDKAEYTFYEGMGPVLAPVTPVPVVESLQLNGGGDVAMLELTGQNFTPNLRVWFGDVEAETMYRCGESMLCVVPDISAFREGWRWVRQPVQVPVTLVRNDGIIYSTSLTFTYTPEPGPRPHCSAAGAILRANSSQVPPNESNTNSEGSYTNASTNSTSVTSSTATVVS

Experiments:
GST-TRIM59 = target: T1, GST-TRIM59 (UniProt Q8IWR1); test: pull-down; GST-tagged proteins on GST agarose beads mixed with His-tagged proteins; beads washed five times with PBS; western blot; the paper calls the binding direct; both purified
T1 sequence: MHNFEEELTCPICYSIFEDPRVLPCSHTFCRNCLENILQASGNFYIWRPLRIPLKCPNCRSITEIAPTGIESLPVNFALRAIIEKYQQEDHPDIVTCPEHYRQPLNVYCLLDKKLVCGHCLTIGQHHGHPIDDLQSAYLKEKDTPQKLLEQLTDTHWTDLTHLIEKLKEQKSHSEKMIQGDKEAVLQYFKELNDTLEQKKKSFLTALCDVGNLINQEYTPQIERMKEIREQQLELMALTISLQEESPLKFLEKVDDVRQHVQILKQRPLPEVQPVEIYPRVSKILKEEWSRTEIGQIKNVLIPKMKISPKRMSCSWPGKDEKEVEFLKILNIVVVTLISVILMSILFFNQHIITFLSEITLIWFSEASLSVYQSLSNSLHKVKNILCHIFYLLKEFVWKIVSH

[1] = target: T2, Tripartite motif containing 59 (TRIM59), in PC cells (human (in human PC cell lines)) (UniProt Q8IWR1); test: co-IP; PC cells lysed; IP of TRIM59 and IP of RBPJ with primary antibodies overnight at 4 °C, protein A + G beads, western blot
T2 sequence: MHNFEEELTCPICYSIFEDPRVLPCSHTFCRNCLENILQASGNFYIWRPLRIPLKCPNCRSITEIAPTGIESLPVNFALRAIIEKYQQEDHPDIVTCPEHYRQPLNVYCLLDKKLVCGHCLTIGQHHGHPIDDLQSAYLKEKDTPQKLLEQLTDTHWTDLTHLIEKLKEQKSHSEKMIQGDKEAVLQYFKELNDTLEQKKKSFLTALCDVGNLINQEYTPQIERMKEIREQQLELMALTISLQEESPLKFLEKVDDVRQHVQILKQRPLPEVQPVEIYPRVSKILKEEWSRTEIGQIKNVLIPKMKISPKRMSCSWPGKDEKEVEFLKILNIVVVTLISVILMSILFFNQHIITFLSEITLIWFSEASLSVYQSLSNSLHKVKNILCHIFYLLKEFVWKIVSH

GST-RBPJ = GST-RBPJ (UniProt Q06330); test: pull-down; GST-tagged proteins on GST agarose beads mixed with His-tagged proteins; beads washed five times with PBS; western blot; the paper calls the binding direct; both purified
[2] = target: RBPJ, full-length plasmid in HEK-293T cells (UniProt Q06330); test: co-IP; full-length and truncated plasmids of TRIM59 and RBPJ transfected into HEK-293T cells; Co-IP

Molecule: His-tagged RBPJ (from UniProt Q06330 1-500)
binding (GST-TRIM59): binds

Molecule: Recombination signal binding protein for immunoglobulin kappa J region (RBPJ), in PC cells (from UniProt Q06330 1-500)
binding [1]: binds

More lines, now with the values ahead:

binding (GST-RBPJ): binds
B1: His-tagged TRIM59 (protein, UniProt Q8IWR1 1-403)
chain: MHNFEEELTCPICYSIFEDPRVLPCSHTFCRNCLENILQASGNFYIWRPLRIPLKCPNCRSITEIAPTGIESLPVNFALRAIIEKYQQEDHPDIVTCPEHYRQPLNVYCLLDKKLVCGHCLTIGQHHGHPIDDLQSAYLKEKDTPQKLLEQLTDTHWTDLTHLIEKLKEQKSHSEKMIQGDKEAVLQYFKELNDTLEQKKKSFLTALCDVGNLINQEYTPQIERMKEIREQQLELMALTISLQEESPLKFLEKVDDVRQHVQILKQRPLPEVQPVEIYPRVSKILKEEWSRTEIGQIKNVLIPKMKISPKRMSCSWPGKDEKEVEFLKILNIVVVTLISVILMSILFFNQHIITFLSEITLIWFSEASLSVYQSLSNSLHKVKNILCHIFYLLKEFVWKIVSH

binding [2]: binds
B2: TRIM59, full-length plasmid in HEK-293T cells (protein, UniProt Q8IWR1 1-403)
chain: MHNFEEELTCPICYSIFEDPRVLPCSHTFCRNCLENILQASGNFYIWRPLRIPLKCPNCRSITEIAPTGIESLPVNFALRAIIEKYQQEDHPDIVTCPEHYRQPLNVYCLLDKKLVCGHCLTIGQHHGHPIDDLQSAYLKEKDTPQKLLEQLTDTHWTDLTHLIEKLKEQKSHSEKMIQGDKEAVLQYFKELNDTLEQKKKSFLTALCDVGNLINQEYTPQIERMKEIREQQLELMALTISLQEESPLKFLEKVDDVRQHVQILKQRPLPEVQPVEIYPRVSKILKEEWSRTEIGQIKNVLIPKMKISPKRMSCSWPGKDEKEVEFLKILNIVVVTLISVILMSILFFNQHIITFLSEITLIWFSEASLSVYQSLSNSLHKVKNILCHIFYLLKEFVWKIVSH
